Chains of the proteins cited; added tags and fusions are not shown.
UniProt P35637: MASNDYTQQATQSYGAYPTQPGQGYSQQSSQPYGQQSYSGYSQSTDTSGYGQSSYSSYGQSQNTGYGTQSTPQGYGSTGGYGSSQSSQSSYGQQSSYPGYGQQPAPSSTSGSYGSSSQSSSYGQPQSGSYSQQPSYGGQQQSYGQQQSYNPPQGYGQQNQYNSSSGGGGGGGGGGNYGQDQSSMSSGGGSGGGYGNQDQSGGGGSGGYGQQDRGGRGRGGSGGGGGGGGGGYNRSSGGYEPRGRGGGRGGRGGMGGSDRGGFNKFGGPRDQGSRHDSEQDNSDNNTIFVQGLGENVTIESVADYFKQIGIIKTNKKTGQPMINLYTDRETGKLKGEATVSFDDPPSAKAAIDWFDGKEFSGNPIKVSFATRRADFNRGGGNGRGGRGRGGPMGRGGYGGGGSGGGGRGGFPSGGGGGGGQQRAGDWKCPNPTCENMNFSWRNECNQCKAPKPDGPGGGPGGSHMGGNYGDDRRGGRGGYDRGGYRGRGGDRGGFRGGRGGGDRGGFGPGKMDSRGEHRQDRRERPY

According to PMC8403768:

Biological target: Fused in sarcoma (FUS) (human (endogenous in U-2 OS)) (UniProt P35637)
Assay: affinity purification with mass spectrometry; rapid IP MS of endogenous proteins: U-2 OS cells fixed with 1% formaldehyde, nuclei digested with benzonase, IP with anti-FUS antibody (Bethyl A300-302A) and protein G Dynabeads, RIPA washes, label-free quantitative MS; FUS-/- cells as negative control

- binding: binds
B1: UHRF1 (protein, UniProt Q96T88 1-793)
chain: MWIQVRTMDGRQTHTVDSLSRLTKVEELRRKIQELFHVEPGLQRLFYRGKQMEDGHTLFDYEVRLNDTIQLLVRQSLVLPHSTKERDSELSDTDSGCCLGQSESDKSSTHGEAAAETDSRPADEDMWDETELGLYKVNEYVDARDTNMGAWFEAQVVRVTRKAPSRDEPCSSTSRPALEEDVIYHVKYDDYPENGVVQMNSRDVRARARTIIKWQDLEVGQVVMLNYNPDNPKERGFWYDAEISRKRETRTARELYANVVLGDDSLNDCRIIFVDEVFKIERPGEGSPMVDNPMRRKSGPSCKHCKDDVNRLCRVCACHLCGGRQDPDKQLMCDECDMAFHIYCLDPPLSSVPSEDEWYCPECRNDASEVVLAGERLRESKKKAKMASATSSSQRDWGKGMACVGRTKECTIVPSNHYGPIPGIPVGTMWRFRVQVSESGVHRPHVAGIHGRSNDGAYSLVLAGGYEDDVDHGNFFTYTGSGGRDLSGNKRTAEQSCDQKLTNTNRALALNCFAPINDQEGAEAKDWRSGKPVRVVRNVKGGKNSKYAPAEGNRYDGIYKVVKYWPEKGKSGFLVWRYLLRRDDDEPGPWTKEGKDRIKKLGLTMQYPEGYLEALANREREKENSKREEEEQQEGGFASPRTGKGKWKRKSAGGGPSRAGSPRRTSKKTKVEPYSLTAQQSSLIREDKSNAKLWNEVLASLKDRPASGSPFQLFLSKVEETFQCICCQELVFRPITTVCQHNVCKDCLDRSFRAQVFSCPACRYDLGRSYAMQVNQPLQTVLNQLFPGYGNGR

No constants are given. Whether binding was seen depends on the method and setting. In cells and extracts the contact can be indirect. Here binding means that the protein was enriched with, or labelled near, the bait; the list need not be complete.
